Source: patent publication US20150056133A1
These are yes or no findings as the source states them, for the method shown. A result given as binding can be weak or reduced; the word gives no strength. Values belong to the binder of their own block, whether it stands above or below them.

Target: human CX3CR1 (human)
Assay: radioligand cell binding, 1 nM 99mTc-VHH on CHO-hCX3CR1 vs CHO-WT cells, gamma counting

B2: 99mTc-CX3CR1BII316 (VHH)
VHH: EVQLVESGGGSVQAGESLRLSCAASGSIFSSNAMAWYRQAPPGKQRDLVALINSVGITKYADSVKGRFTISSDNAKNTVYLEMNSLKPEDTAVYYCTSDGRRGWDTRYWGQGTQVTVSS
modifications: 99mTc-tricarbonyl on the C-terminal hexahistidine tag
binding: binds

B3: 99mTc-CX3CR1BII315 (VHH)
VHH: EVQLVESGGGLVQAGGSLRLSCVASGRTFSSYAMGWFRQAPGKERAFVAGISGSASRKYYADSVKGRFTVSRDNARNTVYLQMNSLKPEDTAVYYCAASNSYPKVQFDYYGQGTQVTVSS
modifications: 99mTc-tricarbonyl on the C-terminal hexahistidine tag
binding: binds

B4: 99mTc-CX3CR1BII18E06 (VHH)
VHH: KVQLVESGGGLVQPGGSLRLSCATSGTIFSNNAMGWYRQAPGKKRDLVASISSSGSTNYADSVKGRFTVSRDNDKNTGYLQMNSLKPEDTGVYYCTLDARRGWNTAYWGQGAQVTVSS
modifications: 99mTc-tricarbonyl on the C-terminal hexahistidine tag
binding: binds

Further lines, results first:

binding: binds
B1: 99mTc-CX3CR1BII317 (VHH)
chain: EVQLVESGGGLVQAGGSLRLSCVASGRTFSSYAMGWFRQAPGKERAFVAGISGSASRKYYADSVKGRFTVSRDNARNTVYLQMNSLKPEDTAVYYCAASNSYPKVQFDYYGQGTLVTVSSGGGGSGGGGSGGGGSGGGGSGGGGSGGGGSGGGGSEVQLVESGGGLVQAGGSLRLSCVASGRTFSSYAMGWFRQAPGKERAFVAGISGSASRKYYADSVKGRFTVSRDNARNTVYLQMNSLKPEDTAVYYCAASNSYPKVQFDYYGQGTLVTVSSAAAEQKLISEEDLNGAAHHHHHH
modifications: 99mTc-tricarbonyl on the C-terminal hexahistidine tag

binding: binds
B5: 99mTc-CX3CR1BII318 (VHH)
chain: EVQLVESGGGSVQAGESLRLSCAASGSIFSSNAMAWYRQAPGKRRDLVAAINSVGVTKYADSVKGRFTISRDNAKNTVYLQMNSLKPEDTAVYYCTSDPRRGWDTRYWGQGTQVTVSSGGGGSGGGGSGGGGSGGGGSGGGGSGGGGSGGGGSEVQLVESGGGSVQAGESLRLSCAASGSIFSSNAMAWYRQAPGKRRDLVAAINSVGVTKYADSVKGRFTISRDNAKNTVYLQMNSLKPEDTAVYYCTSDPRRGWDTRYWGQGTQVTVSSAAAEQKLISEEDLNGAAHHHHHH
modifications: 99mTc-tricarbonyl on the C-terminal hexahistidine tag

binding: binds
B6: 99mTc-CX3CR1BII66B02 (VHH)
VHH: EVQLVESGGGSVQAGESLRLSCAASGSIFSSNAMAWYRQAPGKRRDLVAAINSVGVTKYADSVKGRFTISRDNAKNTVYLQMNSLKPEDTAVYYCTSDPRRGWDTRYWGQGTQVTVSS
modifications: 99mTc-tricarbonyl on the C-terminal hexahistidine tag
